Results: article PMC4593031, “Azobenzene Modified Imidacloprid Derivatives as Photoswitchable Insecticides: Steering Molecular Activity in a Controllable Manner” (Scientific Reports, 2015)

Test system: house fly brain nAChR
Assay: nAChR binding in vitro, competitive inhibition of [3H]NMI binding
Design: species or system Musca domestica
Details: nonirradiated vs irradiated
Method: Tritium labeled nitromethylene analogue of IMI ([^3H]NMI) is a unique reporter for monitoring nAChR binding not only in vitro but also in vivo due to its extremely high binding potency. Here, the in vitro interaction of AMIs with house fly brain nAChR was measured by competitive inhibition of [^3H]NMI binding (Table 2). Photoisomers of AMI-1, 2, 5, and 6 had very poor ability to displacing [^3H]NMI binding (IC50 > 2000 nM) leading to difficulty for difference judgement. […] A 4-fold difference was achieved on AMI-4 and 10 upon photoirradiation. Compounds AMI-9 or AMI-10 have some similarities with the bis-IMI derivatives disclosed by Kagabu et al.[49][50][51]. […]
House fly heads were collected after the fly adults frozen with liquid nitrogen were broken into body parts. […] The reaction mixture was filtered through Whatman GF/B glass-fiber filters prewetted by binding buffer using a Brandel M-24R Harvester (Gaithersburg, MD) to quantitate the bound [^3H]NMI, followed by two rinses each with binding buffer (5 mL) and final liquid scintillation. Nonspecific binding was determined with unlabeled NMI (20 μM). […] The percentage inhibition was determined from two (compounds AMI-1, AMI-2, AMI-5, AMI-6 and azobenzene whose activities were extremely low) or three separate experiments each with triplicate samples. […]

| Structure (SMILES) | difference in [3H]NMI binding IC50 upon photoirradiation [fold] |
| --- | --- |
| O=[N+]([O-])N=C1N(Cc2ccc(N=Nc3ccc(CN4CCN(Cc5ccc(Cl)nc5)C4=N[N+](=O)[O-])cc3)cc2)CCN1Cc1ccc(Cl)nc1 [AMI-10] | 4 |
| O=[N+]([O-])/N=C1/N(Cc2ccc(/N=N/c3ccccc3)cc2)CCN1Cc1ccc(Cl)nc1 [AMI-4] | 4 |
